Measurements: paper PMC10669082
Results are given in words; binding and its absence hold for the method and conditions named. Binding seen in cells or lysates may run through a third protein. Some binding calls cover weakened binding; strength is not graded here.

Sequences of proteins named here, by UniProt entry; tags and fusion partners are left off.
UniProt Q92793: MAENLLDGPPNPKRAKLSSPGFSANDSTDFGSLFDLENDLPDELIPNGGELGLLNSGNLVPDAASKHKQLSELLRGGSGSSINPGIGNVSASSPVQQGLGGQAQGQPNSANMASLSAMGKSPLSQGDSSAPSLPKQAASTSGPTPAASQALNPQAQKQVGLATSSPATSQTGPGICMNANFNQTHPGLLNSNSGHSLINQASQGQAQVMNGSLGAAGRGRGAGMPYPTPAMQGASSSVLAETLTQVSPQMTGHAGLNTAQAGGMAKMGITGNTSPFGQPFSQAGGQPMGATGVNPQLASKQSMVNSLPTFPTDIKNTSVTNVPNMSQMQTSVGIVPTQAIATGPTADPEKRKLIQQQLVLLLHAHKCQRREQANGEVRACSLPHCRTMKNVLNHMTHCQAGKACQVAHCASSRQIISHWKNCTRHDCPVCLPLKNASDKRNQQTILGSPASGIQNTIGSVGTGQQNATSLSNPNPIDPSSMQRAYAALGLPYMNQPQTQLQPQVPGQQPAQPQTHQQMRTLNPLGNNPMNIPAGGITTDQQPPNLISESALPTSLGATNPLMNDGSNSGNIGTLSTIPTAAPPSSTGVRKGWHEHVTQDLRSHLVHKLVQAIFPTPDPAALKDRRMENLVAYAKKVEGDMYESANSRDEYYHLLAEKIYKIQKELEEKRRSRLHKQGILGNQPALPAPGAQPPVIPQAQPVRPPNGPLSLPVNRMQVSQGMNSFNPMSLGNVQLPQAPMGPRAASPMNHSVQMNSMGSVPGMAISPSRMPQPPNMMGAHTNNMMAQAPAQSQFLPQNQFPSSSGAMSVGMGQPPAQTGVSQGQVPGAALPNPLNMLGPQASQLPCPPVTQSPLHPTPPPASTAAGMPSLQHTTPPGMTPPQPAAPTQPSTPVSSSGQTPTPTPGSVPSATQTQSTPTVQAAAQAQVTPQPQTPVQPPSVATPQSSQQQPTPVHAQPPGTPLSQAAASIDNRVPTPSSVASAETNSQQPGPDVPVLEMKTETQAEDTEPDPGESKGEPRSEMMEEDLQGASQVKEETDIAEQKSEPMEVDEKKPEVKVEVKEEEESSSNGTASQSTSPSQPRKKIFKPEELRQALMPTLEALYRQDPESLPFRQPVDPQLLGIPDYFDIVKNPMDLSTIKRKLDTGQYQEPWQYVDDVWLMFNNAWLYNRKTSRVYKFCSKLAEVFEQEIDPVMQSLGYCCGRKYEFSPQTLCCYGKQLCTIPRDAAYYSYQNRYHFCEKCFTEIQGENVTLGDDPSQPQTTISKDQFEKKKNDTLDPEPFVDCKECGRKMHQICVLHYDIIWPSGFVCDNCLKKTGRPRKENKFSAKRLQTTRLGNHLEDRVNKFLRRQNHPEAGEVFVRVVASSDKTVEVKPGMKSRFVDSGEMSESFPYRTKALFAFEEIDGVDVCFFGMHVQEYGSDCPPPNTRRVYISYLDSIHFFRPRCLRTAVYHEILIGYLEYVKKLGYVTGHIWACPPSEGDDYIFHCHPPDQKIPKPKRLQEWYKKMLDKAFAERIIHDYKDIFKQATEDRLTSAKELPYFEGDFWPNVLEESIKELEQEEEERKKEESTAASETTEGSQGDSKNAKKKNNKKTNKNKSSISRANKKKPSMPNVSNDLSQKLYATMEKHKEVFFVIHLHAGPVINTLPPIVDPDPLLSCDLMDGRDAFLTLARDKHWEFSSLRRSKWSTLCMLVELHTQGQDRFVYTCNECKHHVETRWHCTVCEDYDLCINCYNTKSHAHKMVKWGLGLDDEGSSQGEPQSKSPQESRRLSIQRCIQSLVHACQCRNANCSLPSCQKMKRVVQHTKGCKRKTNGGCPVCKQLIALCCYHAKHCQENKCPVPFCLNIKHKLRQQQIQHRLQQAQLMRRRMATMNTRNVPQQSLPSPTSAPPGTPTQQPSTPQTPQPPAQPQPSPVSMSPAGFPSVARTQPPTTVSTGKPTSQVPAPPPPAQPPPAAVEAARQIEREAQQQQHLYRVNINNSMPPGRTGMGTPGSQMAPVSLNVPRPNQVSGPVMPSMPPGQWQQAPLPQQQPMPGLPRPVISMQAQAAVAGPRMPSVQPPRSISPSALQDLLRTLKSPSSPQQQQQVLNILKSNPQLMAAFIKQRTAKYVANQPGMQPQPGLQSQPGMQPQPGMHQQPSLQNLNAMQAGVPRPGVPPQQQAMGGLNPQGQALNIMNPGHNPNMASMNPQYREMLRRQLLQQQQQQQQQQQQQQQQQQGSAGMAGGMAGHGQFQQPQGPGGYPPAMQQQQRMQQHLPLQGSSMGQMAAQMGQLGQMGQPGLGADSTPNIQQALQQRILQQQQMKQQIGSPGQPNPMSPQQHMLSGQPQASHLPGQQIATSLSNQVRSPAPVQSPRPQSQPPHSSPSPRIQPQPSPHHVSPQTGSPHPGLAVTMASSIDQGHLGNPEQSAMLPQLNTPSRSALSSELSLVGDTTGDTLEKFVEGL
UniProt P10275: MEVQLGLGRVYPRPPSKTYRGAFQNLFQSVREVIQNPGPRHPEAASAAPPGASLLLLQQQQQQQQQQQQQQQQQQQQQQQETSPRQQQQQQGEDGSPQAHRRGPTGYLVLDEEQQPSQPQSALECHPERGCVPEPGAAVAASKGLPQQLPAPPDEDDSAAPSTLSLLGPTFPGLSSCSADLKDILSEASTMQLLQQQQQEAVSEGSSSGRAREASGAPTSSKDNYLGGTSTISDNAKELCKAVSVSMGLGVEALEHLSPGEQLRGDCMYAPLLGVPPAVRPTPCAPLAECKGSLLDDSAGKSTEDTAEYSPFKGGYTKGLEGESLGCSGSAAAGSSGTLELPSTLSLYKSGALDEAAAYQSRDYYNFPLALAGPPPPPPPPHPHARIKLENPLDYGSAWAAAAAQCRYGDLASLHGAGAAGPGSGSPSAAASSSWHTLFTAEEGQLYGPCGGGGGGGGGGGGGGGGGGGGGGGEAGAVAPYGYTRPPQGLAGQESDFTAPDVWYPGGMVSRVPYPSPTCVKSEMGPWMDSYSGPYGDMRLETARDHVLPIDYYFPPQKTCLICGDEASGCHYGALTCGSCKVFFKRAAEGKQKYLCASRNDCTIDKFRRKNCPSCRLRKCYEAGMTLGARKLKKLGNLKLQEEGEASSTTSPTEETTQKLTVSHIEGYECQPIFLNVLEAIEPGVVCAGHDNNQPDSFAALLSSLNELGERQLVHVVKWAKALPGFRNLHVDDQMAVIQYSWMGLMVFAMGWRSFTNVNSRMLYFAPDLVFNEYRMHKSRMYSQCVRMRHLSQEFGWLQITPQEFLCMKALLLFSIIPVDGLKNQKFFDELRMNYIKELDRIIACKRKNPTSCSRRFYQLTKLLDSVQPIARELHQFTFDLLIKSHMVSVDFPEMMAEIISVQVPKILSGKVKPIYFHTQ

Molecular target: CREB-binding protein (CBP) (human (endogenous in BPH-1)) (UniProt Q92793)
Experiment: co-IP; BPH-1 cell lysate supernatant incubated overnight at 4 °C with anti-CBP antibody or IgG, then magnetic beads 1 h at room temperature; precipitate blotted for AR and CBP

- binding: binds
Substance: androgen receptor (AR) (from UniProt P10275 1-920)
